These are literature values, as cited in PMC7884382, “A Phase 1 study of RO6870810, a novel bromodomain and extra-terminal protein inhibitor, in patients with NUT carcinoma, other solid tumours, or diffuse large B-cell lymphoma” (British Journal of Cancer, 2020).

On the set-up of this data set: method as in PMID 29733771, PMID 32328561. The settings on record: cited from earlier work.

As to `CCNC(=O)C[C@@H]1N=C(c2ccc(Cl)cc2)c2cc(OC)ccc2-n2c(C)nnc21` [molibresib], the Half-life was 3 to 7 h.
